Paper PMC11811033
Results are given in words; binding and its absence hold for the method and conditions named. Binding seen in cells or lysates may run through a third protein. Some binding calls cover weakened binding; strength is not graded here.

Amino acid sequences for entries named in this document (tags omitted). A change or cut given only in a name is not applied to a line headed by its entry.
UniProt P06213: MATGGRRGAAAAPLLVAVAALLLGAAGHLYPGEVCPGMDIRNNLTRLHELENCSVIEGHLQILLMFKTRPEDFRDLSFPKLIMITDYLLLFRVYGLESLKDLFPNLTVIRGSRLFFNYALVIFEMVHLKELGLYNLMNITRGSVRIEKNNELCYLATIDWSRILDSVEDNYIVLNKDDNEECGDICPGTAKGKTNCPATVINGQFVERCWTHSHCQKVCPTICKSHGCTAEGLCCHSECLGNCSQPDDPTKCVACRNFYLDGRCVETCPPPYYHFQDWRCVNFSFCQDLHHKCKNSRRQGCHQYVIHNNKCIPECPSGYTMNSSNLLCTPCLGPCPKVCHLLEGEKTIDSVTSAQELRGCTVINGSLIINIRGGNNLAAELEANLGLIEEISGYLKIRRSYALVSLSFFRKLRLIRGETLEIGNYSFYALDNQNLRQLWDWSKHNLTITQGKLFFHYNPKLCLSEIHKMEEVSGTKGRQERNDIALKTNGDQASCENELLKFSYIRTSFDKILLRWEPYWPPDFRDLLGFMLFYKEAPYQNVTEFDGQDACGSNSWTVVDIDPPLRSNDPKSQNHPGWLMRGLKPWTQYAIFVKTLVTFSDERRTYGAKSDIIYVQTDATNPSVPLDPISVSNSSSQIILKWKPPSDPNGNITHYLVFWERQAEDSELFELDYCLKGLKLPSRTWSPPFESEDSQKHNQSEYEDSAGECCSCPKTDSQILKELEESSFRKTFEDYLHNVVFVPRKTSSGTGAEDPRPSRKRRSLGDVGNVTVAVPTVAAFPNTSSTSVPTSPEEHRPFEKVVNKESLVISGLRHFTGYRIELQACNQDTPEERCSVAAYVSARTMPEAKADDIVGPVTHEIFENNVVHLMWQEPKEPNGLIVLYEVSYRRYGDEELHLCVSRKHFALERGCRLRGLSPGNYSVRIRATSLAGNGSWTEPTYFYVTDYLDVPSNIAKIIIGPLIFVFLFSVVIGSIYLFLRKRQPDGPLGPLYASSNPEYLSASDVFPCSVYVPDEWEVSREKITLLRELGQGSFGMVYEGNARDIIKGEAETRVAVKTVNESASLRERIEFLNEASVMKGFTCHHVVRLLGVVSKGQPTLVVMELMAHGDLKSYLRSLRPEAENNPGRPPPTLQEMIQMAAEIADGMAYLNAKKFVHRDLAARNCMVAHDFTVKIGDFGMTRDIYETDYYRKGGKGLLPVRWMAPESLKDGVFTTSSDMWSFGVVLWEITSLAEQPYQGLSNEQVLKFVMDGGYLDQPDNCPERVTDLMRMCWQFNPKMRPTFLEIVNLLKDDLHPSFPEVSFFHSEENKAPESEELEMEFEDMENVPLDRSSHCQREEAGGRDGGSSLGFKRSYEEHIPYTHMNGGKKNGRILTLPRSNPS
UniProt Q13049: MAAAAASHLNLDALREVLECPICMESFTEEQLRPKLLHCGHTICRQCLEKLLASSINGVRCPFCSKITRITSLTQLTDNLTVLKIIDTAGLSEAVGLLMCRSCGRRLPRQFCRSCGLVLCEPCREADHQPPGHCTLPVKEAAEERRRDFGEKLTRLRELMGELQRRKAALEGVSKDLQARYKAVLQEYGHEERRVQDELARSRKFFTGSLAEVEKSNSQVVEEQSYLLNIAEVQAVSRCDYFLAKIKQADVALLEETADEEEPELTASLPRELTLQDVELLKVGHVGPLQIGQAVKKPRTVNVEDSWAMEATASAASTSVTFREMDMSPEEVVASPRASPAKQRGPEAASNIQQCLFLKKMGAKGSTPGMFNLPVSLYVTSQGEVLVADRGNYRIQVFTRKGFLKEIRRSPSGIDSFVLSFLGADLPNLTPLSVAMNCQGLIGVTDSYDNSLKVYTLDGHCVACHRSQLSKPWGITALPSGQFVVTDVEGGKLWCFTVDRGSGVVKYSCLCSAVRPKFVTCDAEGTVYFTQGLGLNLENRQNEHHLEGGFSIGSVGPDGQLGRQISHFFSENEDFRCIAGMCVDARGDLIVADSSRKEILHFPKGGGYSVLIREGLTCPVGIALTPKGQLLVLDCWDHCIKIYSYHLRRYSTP

Legend:
[1] = biological target: INSR-WT (human insulin receptor from the plasmid GFP-hIR) expressed in mouse primary hepatocytes (human) (UniProt P06213); experiment: co-IP; mouse primary hepatocytes transfected with INSR-WT or INSR K1085R and the TRIM32 plasmid, 48 h; immunoprecipitated with the INSR antibody, TRIM32 found by Western blot
[2] = biological target: insulin receptor (INSR), endogenous in HepG2 cells (human (endogenous in HepG2)) (UniProt P06213); experiment: co-IP; HepG2 transfected with pEGFP-N1_hTRIM32, 48 h; NP-40 lysis buffer (NaCl 100 mM, HEPES 30 mM, NP-40 0.5%, pH 7.4); 800 ug protein with Dynabeads and insulin receptor antibody overnight; endogenous INSR precipitated, TRIM32 found by Western blot

Substance	binding [1]	binding [2]
TRIM32 (from the TRIM32 plasmid) expressed in mouse primary hepatocytes (from UniProt Q13049 1-653) (enzyme)	binds	
tripartite motif-containing protein 32 (TRIM32), GFP-TRIM32 expressed in HepG2 cells (from UniProt Q13049 1-653) (enzyme)		binds
